# Laboratory results reported in the supplement of paper PMC11438910.
# This is one part of the list. Only a few entries rise above the background.
# B1: 4-99.2 (protein)
# chain 1: QVQLQESGPGLVKPSETLSLTCAVSGYSIRSAYEWGWIRQPPGKGLEYIGYISGESGNTYYSPSLKSRVTISRDTSKNQFSLRLSSVTAADSAVYYCARRGQLIGFDFWGQGVLVTVSS
# chain 2: QAAPTQPPSVSGSPGQSVTISCTGTSSDIGYYNAVSWYQHLPGKAPKLMIYEVSKRPSGVSDRFSGSKSGNTASLTISGLQAEDEADYYCSSYAGSNTYIFGAGTRLTVL
# Legend:
# Experiment in all cases: fluorescence intensity of antibody binding to polysaccharide-coupled beads; higher = stronger binding
# [1] = biological target: pneumococcal polysaccharide Pn33B
# [2] = biological target: pneumococcal polysaccharide Pn33C
# [3] = biological target: pneumococcal polysaccharide Pn33D
# [4] = biological target: pneumococcal polysaccharide Pn33F
# [5] = biological target: pneumococcal polysaccharide Pn34
# [6] = biological target: pneumococcal polysaccharide Pn35A
# [7] = biological target: pneumococcal polysaccharide Pn35B
# [8] = biological target: pneumococcal polysaccharide Pn35C
# [9] = biological target: pneumococcal polysaccharide Pn35F
# [10] = biological target: pneumococcal polysaccharide Pn36
# [11] = biological target: pneumococcal polysaccharide Pn37
# [12] = biological target: pneumococcal polysaccharide Pn38
# [13] = biological target: pneumococcal polysaccharide Pn39
# [14] = biological target: pneumococcal polysaccharide Pn4
# [15] = biological target: pneumococcal polysaccharide Pn40
# [16] = biological target: pneumococcal polysaccharide Pn41A
# [17] = biological target: pneumococcal polysaccharide Pn41F
# [18] = biological target: pneumococcal polysaccharide Pn42
# [19] = biological target: pneumococcal polysaccharide Pn43
# [20] = biological target: pneumococcal polysaccharide Pn44
# [21] = biological target: pneumococcal polysaccharide Pn45
# [22] = biological target: pneumococcal polysaccharide Pn46
# [23] = biological target: pneumococcal polysaccharide Pn47A
# [24] = antibody concentration 2.8593 ng/mL
# [25] = antibody concentration 15.2894 ng/mL
# [26] = antibody concentration 81.7561 ng/mL
# [27] = antibody concentration 437.17 ng/mL
# [28] = antibody concentration 2337.65 ng/mL
# [29] = antibody concentration 12500 ng/mL
# [30] = antibody concentration 0.1 ng/mL
# [31] = antibody concentration 0.534724 ng/mL
binder,measurement,setting,value
B1,fluorescence intensity,[1]; [24],16.5 MFI
same,fluorescence intensity,[1]; [25],18 MFI
same,fluorescence intensity,[1]; [26],19 MFI
same,fluorescence intensity,[1]; [27],17 MFI
same,fluorescence intensity,[1]; [28],18 MFI
same,fluorescence intensity,[1]; [29],20.5 MFI
same,fluorescence intensity,[2]; [30],18.2 MFI
same,fluorescence intensity,[2]; [31],17.2 MFI
same,fluorescence intensity,[2]; [24],21 MFI
same,fluorescence intensity,[2]; [25],20 MFI
same,fluorescence intensity,[2]; [26],20.2 MFI
same,fluorescence intensity,[2]; [27],20 MFI
same,fluorescence intensity,[2]; [28],20.5 MFI
same,fluorescence intensity,[2]; [29],30 MFI
same,fluorescence intensity,[3]; [30],16 MFI
same,fluorescence intensity,[3]; [31],15.2 MFI
same,fluorescence intensity,[3]; [24],15.8 MFI
same,fluorescence intensity,[3]; [25],15.5 MFI
same,fluorescence intensity,[3]; [26],15 MFI
same,fluorescence intensity,[3]; [27],15.5 MFI
same,fluorescence intensity,[3]; [28],16 MFI
same,fluorescence intensity,[3]; [29],20 MFI
same,fluorescence intensity,[4]; [30],12.5 MFI
same,fluorescence intensity,[4]; [31],11.8 MFI
same,fluorescence intensity,[4]; [24],12 MFI
same,fluorescence intensity,[4]; [25],13 MFI
same,fluorescence intensity,[4]; [26],12.5 MFI
same,fluorescence intensity,[4]; [27],14 MFI
same,fluorescence intensity,[4]; [28],16.5 MFI
same,fluorescence intensity,[4]; [29],51.5 MFI
same,fluorescence intensity,[5]; [30],13.5 MFI
same,fluorescence intensity,[5]; [31],14.2 MFI
same,fluorescence intensity,[5]; [24],13 MFI
same,fluorescence intensity,[5]; [25],12.5 MFI
same,fluorescence intensity,[5]; [26],12 MFI
same,fluorescence intensity,[5]; [27],13.2 MFI
same,fluorescence intensity,[5]; [28],14.5 MFI
same,fluorescence intensity,[5]; [29],17 MFI
same,fluorescence intensity,[6]; [30],16 MFI
same,fluorescence intensity,[6]; [31],16.8 MFI
same,fluorescence intensity,[6]; [24],16.5 MFI
same,fluorescence intensity,[6]; [25],15.8 MFI
same,fluorescence intensity,[6]; [26],17 MFI
same,fluorescence intensity,[6]; [27],18 MFI
same,fluorescence intensity,[6]; [28],19.5 MFI
same,fluorescence intensity,[6]; [29],38 MFI
same,fluorescence intensity,[7]; [30],19 MFI
same,fluorescence intensity,[7]; [31],18 MFI
same,fluorescence intensity,[7]; [24],18 MFI
same,fluorescence intensity,[7]; [25],18 MFI
same,fluorescence intensity,[7]; [26],19 MFI
same,fluorescence intensity,[7]; [27],18 MFI
same,fluorescence intensity,[7]; [28],19.5 MFI
same,fluorescence intensity,[7]; [29],31.5 MFI
same,fluorescence intensity,[8]; [30],19.8 MFI
same,fluorescence intensity,[8]; [31],18.8 MFI
same,fluorescence intensity,[8]; [24],18.8 MFI
same,fluorescence intensity,[8]; [25],18.2 MFI
same,fluorescence intensity,[8]; [26],19 MFI
same,fluorescence intensity,[8]; [27],19 MFI
same,fluorescence intensity,[8]; [28],20.5 MFI
same,fluorescence intensity,[8]; [29],23 MFI
same,fluorescence intensity,[9]; [30],17.5 MFI
same,fluorescence intensity,[9]; [31],19 MFI
same,fluorescence intensity,[9]; [24],19 MFI
same,fluorescence intensity,[9]; [25],19 MFI
same,fluorescence intensity,[9]; [26],21 MFI
same,fluorescence intensity,[9]; [27],19 MFI
same,fluorescence intensity,[9]; [28],18.5 MFI
same,fluorescence intensity,[9]; [29],23 MFI
same,fluorescence intensity,[10]; [30],15 MFI
same,fluorescence intensity,[10]; [31],15 MFI
same,fluorescence intensity,[10]; [24],15 MFI
same,fluorescence intensity,[10]; [25],16.5 MFI
same,fluorescence intensity,[10]; [26],15 MFI
same,fluorescence intensity,[10]; [27],17 MFI
same,fluorescence intensity,[10]; [28],17.5 MFI
same,fluorescence intensity,[10]; [29],31.8 MFI
same,fluorescence intensity,[11]; [30],24.5 MFI
same,fluorescence intensity,[11]; [31],23 MFI
same,fluorescence intensity,[11]; [24],24 MFI
same,fluorescence intensity,[11]; [25],24 MFI
same,fluorescence intensity,[11]; [26],25.5 MFI
same,fluorescence intensity,[11]; [27],25 MFI
same,fluorescence intensity,[11]; [28],33 MFI
same,fluorescence intensity,[11]; [29],99.5 MFI
same,fluorescence intensity,[12]; [30],24.5 MFI
same,fluorescence intensity,[12]; [31],25 MFI
same,fluorescence intensity,[12]; [24],26 MFI
same,fluorescence intensity,[12]; [25],24 MFI
same,fluorescence intensity,[12]; [26],27 MFI
same,fluorescence intensity,[12]; [27],25.5 MFI
same,fluorescence intensity,[12]; [28],28.5 MFI
same,fluorescence intensity,[12]; [29],36.5 MFI
same,fluorescence intensity,[13]; [30],18.2 MFI
same,fluorescence intensity,[13]; [31],18 MFI
same,fluorescence intensity,[13]; [24],18 MFI
same,fluorescence intensity,[13]; [25],19 MFI
same,fluorescence intensity,[13]; [26],19.5 MFI
same,fluorescence intensity,[13]; [27],19.5 MFI
same,fluorescence intensity,[13]; [28],20.5 MFI
same,fluorescence intensity,[13]; [29],30.2 MFI
same,fluorescence intensity,[14]; [30],17 MFI
same,fluorescence intensity,[14]; [31],17.5 MFI
same,fluorescence intensity,[14]; [24],16 MFI
same,fluorescence intensity,[14]; [25],16.5 MFI
same,fluorescence intensity,[14]; [26],18 MFI
same,fluorescence intensity,[14]; [27],19 MFI
same,fluorescence intensity,[14]; [28],22.2 MFI
same,fluorescence intensity,[14]; [29],34 MFI
same,fluorescence intensity,[15]; [30],16 MFI
same,fluorescence intensity,[15]; [31],15.5 MFI
same,fluorescence intensity,[15]; [24],16 MFI
same,fluorescence intensity,[15]; [25],16.5 MFI
same,fluorescence intensity,[15]; [26],16 MFI
same,fluorescence intensity,[15]; [27],18 MFI
same,fluorescence intensity,[15]; [28],18.5 MFI
same,fluorescence intensity,[15]; [29],38 MFI
same,fluorescence intensity,[16]; [30],21.2 MFI
same,fluorescence intensity,[16]; [31],21.5 MFI
same,fluorescence intensity,[16]; [24],22 MFI
same,fluorescence intensity,[16]; [25],22.5 MFI
same,fluorescence intensity,[16]; [26],23 MFI
same,fluorescence intensity,[16]; [27],22.5 MFI
same,fluorescence intensity,[16]; [28],25 MFI
same,fluorescence intensity,[16]; [29],28 MFI
same,fluorescence intensity,[17]; [30],12.5 MFI
same,fluorescence intensity,[17]; [31],12 MFI
same,fluorescence intensity,[17]; [24],12.8 MFI
same,fluorescence intensity,[17]; [25],12 MFI
same,fluorescence intensity,[17]; [26],12.5 MFI
same,fluorescence intensity,[17]; [27],12 MFI
same,fluorescence intensity,[17]; [28],13 MFI
same,fluorescence intensity,[17]; [29],18.5 MFI
same,fluorescence intensity,[18]; [30],12 MFI
same,fluorescence intensity,[18]; [31],10.8 MFI
same,fluorescence intensity,[18]; [24],11 MFI
same,fluorescence intensity,[18]; [25],11 MFI
same,fluorescence intensity,[18]; [26],10.5 MFI
same,fluorescence intensity,[18]; [27],11.5 MFI
same,fluorescence intensity,[18]; [28],13 MFI
same,fluorescence intensity,[18]; [29],18.5 MFI
same,fluorescence intensity,[19]; [30],13.5 MFI
same,fluorescence intensity,[19]; [31],14.5 MFI
same,fluorescence intensity,[19]; [24],15.5 MFI
same,fluorescence intensity,[19]; [25],14 MFI
same,fluorescence intensity,[19]; [26],15.5 MFI
same,fluorescence intensity,[19]; [27],16.5 MFI
same,fluorescence intensity,[19]; [28],19.5 MFI
same,fluorescence intensity,[19]; [29],55.5 MFI
same,fluorescence intensity,[20]; [30],25 MFI
same,fluorescence intensity,[20]; [31],23.5 MFI
same,fluorescence intensity,[20]; [24],23.5 MFI
same,fluorescence intensity,[20]; [25],23.5 MFI
same,fluorescence intensity,[20]; [26],23.5 MFI
same,fluorescence intensity,[20]; [27],24.5 MFI
same,fluorescence intensity,[20]; [28],25.5 MFI
same,fluorescence intensity,[20]; [29],31.8 MFI
same,fluorescence intensity,[21]; [30],11.5 MFI
same,fluorescence intensity,[21]; [31],11 MFI
same,fluorescence intensity,[21]; [24],9.25 MFI
same,fluorescence intensity,[21]; [25],11 MFI
same,fluorescence intensity,[21]; [26],11 MFI
same,fluorescence intensity,[21]; [27],11 MFI
same,fluorescence intensity,[21]; [28],11.5 MFI
same,fluorescence intensity,[21]; [29],15.5 MFI
same,fluorescence intensity,[22]; [30],22.5 MFI
same,fluorescence intensity,[22]; [31],23.5 MFI
same,fluorescence intensity,[22]; [24],22.8 MFI
same,fluorescence intensity,[22]; [25],22.5 MFI
same,fluorescence intensity,[22]; [26],22.2 MFI
same,fluorescence intensity,[22]; [27],23.5 MFI
same,fluorescence intensity,[22]; [28],25.8 MFI
same,fluorescence intensity,[22]; [29],39.8 MFI
same,fluorescence intensity,[23]; [30],15 MFI
same,fluorescence intensity,[23]; [31],14.5 MFI
same,fluorescence intensity,[23]; [24],14.8 MFI
same,fluorescence intensity,[23]; [25],15.5 MFI
same,fluorescence intensity,[23]; [26],15.8 MFI
same,fluorescence intensity,[23]; [27],15 MFI

# 6 records drawn at random from the list so far, as already listed:
binder,measurement,setting,value
B1,fluorescence intensity,[22]; [25],22.5 MFI
same,fluorescence intensity,[16]; [30],21.2 MFI
same,fluorescence intensity,[5]; [26],12 MFI
same,fluorescence intensity,[10]; [25],16.5 MFI
same,fluorescence intensity,[11]; [31],23 MFI
same,fluorescence intensity,[5]; [29],17 MFI

# In another format: entries from further up.
binder | measurement | setting | value
B1 | fluorescence intensity | [16]; [30] | 21.2 MFI
same | fluorescence intensity | [20]; [24] | 23.5 MFI
